These are yes or no findings as the source states them, for the method shown. Binding seen in cells or lysates may run through a third protein. Some entries that bind do so weakly or less than the wild type. Tags and fused reporters may be left off the sequences shown.
T1: FBXO24 (WT) tagged with 3×FLAG (mouse) (UniProt Q9D417)
T1 sequence: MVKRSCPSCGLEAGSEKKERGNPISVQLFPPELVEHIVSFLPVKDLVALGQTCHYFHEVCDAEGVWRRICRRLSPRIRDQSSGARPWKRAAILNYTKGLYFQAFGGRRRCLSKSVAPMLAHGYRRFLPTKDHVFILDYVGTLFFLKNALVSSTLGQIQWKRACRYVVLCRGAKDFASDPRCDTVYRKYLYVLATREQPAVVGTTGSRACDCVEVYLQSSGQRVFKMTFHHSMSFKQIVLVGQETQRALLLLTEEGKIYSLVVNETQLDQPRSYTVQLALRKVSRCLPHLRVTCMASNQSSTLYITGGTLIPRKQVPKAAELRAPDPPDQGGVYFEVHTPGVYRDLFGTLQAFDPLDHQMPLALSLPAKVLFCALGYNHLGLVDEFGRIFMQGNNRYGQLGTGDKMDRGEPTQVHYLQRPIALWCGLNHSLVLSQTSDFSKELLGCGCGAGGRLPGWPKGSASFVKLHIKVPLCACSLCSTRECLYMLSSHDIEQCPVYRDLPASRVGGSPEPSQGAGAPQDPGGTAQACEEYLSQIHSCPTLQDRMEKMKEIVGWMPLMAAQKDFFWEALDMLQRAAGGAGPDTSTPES

Sequences of proteins named here, by UniProt entry; tags and fusion partners are left off.
UniProt Q9WTX5: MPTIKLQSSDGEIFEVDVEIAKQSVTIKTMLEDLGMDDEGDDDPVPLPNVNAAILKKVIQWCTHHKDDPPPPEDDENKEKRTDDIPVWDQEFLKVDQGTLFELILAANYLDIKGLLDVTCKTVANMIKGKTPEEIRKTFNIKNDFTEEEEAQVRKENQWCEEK
UniProt Q14974: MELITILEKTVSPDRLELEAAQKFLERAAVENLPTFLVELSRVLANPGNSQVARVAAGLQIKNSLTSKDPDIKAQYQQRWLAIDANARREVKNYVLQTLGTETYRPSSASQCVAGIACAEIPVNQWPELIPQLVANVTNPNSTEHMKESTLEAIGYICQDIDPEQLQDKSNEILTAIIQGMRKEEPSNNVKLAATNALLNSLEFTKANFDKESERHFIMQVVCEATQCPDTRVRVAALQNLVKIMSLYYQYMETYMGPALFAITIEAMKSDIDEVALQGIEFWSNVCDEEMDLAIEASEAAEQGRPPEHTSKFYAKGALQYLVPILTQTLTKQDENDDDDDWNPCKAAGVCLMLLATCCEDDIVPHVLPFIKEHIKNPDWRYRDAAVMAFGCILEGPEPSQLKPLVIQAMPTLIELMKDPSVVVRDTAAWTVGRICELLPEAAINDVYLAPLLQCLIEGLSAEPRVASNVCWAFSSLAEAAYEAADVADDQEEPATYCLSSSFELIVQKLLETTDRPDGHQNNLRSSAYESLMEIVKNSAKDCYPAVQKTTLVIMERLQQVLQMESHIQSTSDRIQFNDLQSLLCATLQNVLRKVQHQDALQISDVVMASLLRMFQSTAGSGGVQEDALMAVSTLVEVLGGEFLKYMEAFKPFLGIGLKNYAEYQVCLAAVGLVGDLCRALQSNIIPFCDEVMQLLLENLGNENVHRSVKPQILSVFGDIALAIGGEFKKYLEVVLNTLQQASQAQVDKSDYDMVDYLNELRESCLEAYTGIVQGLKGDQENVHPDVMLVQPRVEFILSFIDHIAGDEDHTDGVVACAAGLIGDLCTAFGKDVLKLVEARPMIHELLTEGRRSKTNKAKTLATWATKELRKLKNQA

T2: 3×FLAG-tagged FBXO24 expressed in transgenic mouse testes (mouse) (UniProt Q9D417)
T2 sequence: T1 sequence

B1: FBXO24 (WT) tagged with 3×FLAG (protein, UniProt Q9D417 1-589)
chain: T1 sequence
B2: IPO5 (importin 5), endogenous in mouse testis (protein, UniProt Q8BKC5 1-1097)
chain: MAAAAAEQQQFYLLLGNLLSPDNVVRKQAEETYENIPGRSKITFLLQAIRNTTAAEEARQMAAVLLRRLLSSAFDEVYPALPSDVQTAIKSELLMIIQMETQSSMRKKICDIAAELARNLIDEDGNNQWPEGLKFLFDSVSSQNMGLREAALHIFWNFPGIFGNQQQHYLDVIKRMLVQCMQDQEHPSIRTLSARATAAFILANEHNVALFKHFADLLPGFLQAVNDSCYQNDDSVLKSLVEIADTVPKYLRPHLEATLQLSLKLCGDTNLNNMQRQLALEVIVTLSETAAAMLRKHTSLIAQTIPQMLAMMVDLEEDEDWANADELEDDDFDSNAVAGESALDRMACGLGGKLVLPMIKEHIMQMLQNPDWKYRHAGLMALSAIGEGCHQQMEGILNEIVNFVLLFLQDPHPRVRYAACNAVGQMATDFAPGFQKKFHEKVIAALLQTMEDQGNQRVQAHAAAALINFTEDCPKSLLIPYLDNLVKHLHSIMVLKLQELIQKGTKLVLEQVVTSIASVADTAEEKFVPYYDLFMPSLKHIVENAVQKELRLLRGKTIECISLIGLAVGKEKFMQDASDVMQLLLKTQTDFNDMEDDDPQISYMISAWARMCKILGKEFQQYLPVVMGPLMKTASIKPEVALLDTQDMENMSDDDGWEFVNLGDQQSFGIKTAGLEEKSTACQMLVCYAKELKEGFVEYTEQVVKLMVPLLKFYFHDGVRVAAAESMPLLLECARVRGPEYLTQMWHFMCDALIKAIGTEPDSDVLSEIMHSFAKCIEVMGDGCLNNEHFEELGGILKAKLEEHFKNQELRQVKRQDEDYDEQVEESLQDEDDNDVYILTKVSDILHSIFSSYKEKVLPWFEQLLPLIVNLICPQRPWPDRQWGLCIFDDIVEHCSPASFKYAEYFISPMLQYVCDNSPEVRQAAAYGLGVMAQFGGDNYRPFCTDALPLLVRVIQAPEAKTKENVNATENCISAVGKIMKFKPDCVNVEEVLPHWLSWLPLHEDKEEAVQTFSYLCDLIESNHPIVLGPNNTNLPKIFSIIAEGEMHEAIKHEDPCAKRLANVVRQVQTSGGLWTECIAQLSPEQQAAIQELLNSA
B3: IPO5 (importin 5), endogenous in HEK293T cells (protein, UniProt O00410 1-1097)
chain: MAAAAAEQQQFYLLLGNLLSPDNVVRKQAEETYENIPGQSKITFLLQAIRNTTAAEEARQMAAVLLRRLLSSAFDEVYPALPSDVQTAIKSELLMIIQMETQSSMRKKVCDIAAELARNLIDEDGNNQWPEGLKFLFDSVSSQNVGLREAALHIFWNFPGIFGNQQQHYLDVIKRMLVQCMQDQEHPSIRTLSARATAAFILANEHNVALFKHFADLLPGFLQAVNDSCYQNDDSVLKSLVEIADTVPKYLRPHLEATLQLSLKLCGDTSLNNMQRQLALEVIVTLSETAAAMLRKHTNIVAQTIPQMLAMMVDLEEDEDWANADELEDDDFDSNAVAGESALDRMACGLGGKLVLPMIKEHIMQMLQNPDWKYRHAGLMALSAIGEGCHQQMEGILNEIVNFVLLFLQDPHPRVRYAACNAVGQMATDFAPGFQKKFHEKVIAALLQTMEDQGNQRVQAHAAAALINFTEDCPKSLLIPYLDNLVKHLHSIMVLKLQELIQKGTKLVLEQVVTSIASVADTAEEKFVPYYDLFMPSLKHIVENAVQKELRLLRGKTIECISLIGLAVGKEKFMQDASDVMQLLLKTQTDFNDMEDDDPQISYMISAWARMCKILGKEFQQYLPVVMGPLMKTASIKPEVALLDTQDMENMSDDDGWEFVNLGDQQSFGIKTAGLEEKSTACQMLVCYAKELKEGFVEYTEQVVKLMVPLLKFYFHDGVRVAAAESMPLLLECARVRGPEYLTQMWHFMCDALIKAIGTEPDSDVLSEIMHSFAKCIEVMGDGCLNNEHFEELGGILKAKLEEHFKNQELRQVKRQDEDYDEQVEESLQDEDDNDVYILTKVSDILHSIFSSYKEKVLPWFEQLLPLIVNLICPHRPWPDRQWGLCIFDDVIEHCSPASFKYAEYFLRPMLQYVCDNSPEVRQAAAYGLGVMAQYGGDNYRPFCTEALPLLVRVIQSADSKTKENVNATENCISAVGKIMKFKPDCVNVEEVLPHWLSWLPLHEDKEEAVQTFNYLCDLIESNHPIVLGPNNTNLPKIFSIIAEGEMHEAIKHEDPCAKRLANVVRQVQTSGGLWTECIAQLSPEQQAAIQELLNSA

Columns and labels:
[1] = molecular target: T1, FBXO24 (WT) tagged with 3×FLAG (mouse); experiment: co-IP; 3×FLAG-tagged Fbxo24 transiently expressed in HEK293T cells; IP with anti-FLAG antibody; immunoblot of endogenous IPO5 and KPNB1
SKP1-1D4 (mouse) = SKP1-1D4 (mouse) (UniProt Q9WTX5); experiment: co-IP; Fbxo24 (WT or ΔF)-FLAG co-expressed with Skp1-1D4 in HEK293T cells; IP with anti-1D4 or anti-FLAG antibody on Protein G magnetic beads, 1 h at 4°C; 1% Triton X-100 lysis buffer, 50 mM Tris-HCl pH 7.4, 150 mM NaCl; immunoblot
[2] = molecular target: T2, 3×FLAG-tagged FBXO24 expressed in transgenic mouse testes (mouse); experiment: co-IP; IP of FBXO24-FLAG with anti-FLAG antibody from Fbxo24-FLAG Tg mouse testes; immunoblot with mouse anti-IPO5 monoclonal antibody

| Molecule | binding [1] | other results |
| --- | --- | --- |
| KPNB1 (karyopherin subunit beta 1), endogenous in HEK293T cells (from UniProt Q14974 1-876) | no binding | – |
| B1 | – | binding (SKP1-1D4 (mouse)): binds |
| B2 | – | binding [2]: binds |
| B3 | binds | – |

Reference: paper doi:10.1101/2023.11.10.566635
